The results in this text go back to the supplement of paper PMC10849652.

Chains of the proteins cited; added tags and fusions are not shown. Lines headed by an entry give the natural chain unless they say otherwise; changes in a name come on top.
UniProt P16591: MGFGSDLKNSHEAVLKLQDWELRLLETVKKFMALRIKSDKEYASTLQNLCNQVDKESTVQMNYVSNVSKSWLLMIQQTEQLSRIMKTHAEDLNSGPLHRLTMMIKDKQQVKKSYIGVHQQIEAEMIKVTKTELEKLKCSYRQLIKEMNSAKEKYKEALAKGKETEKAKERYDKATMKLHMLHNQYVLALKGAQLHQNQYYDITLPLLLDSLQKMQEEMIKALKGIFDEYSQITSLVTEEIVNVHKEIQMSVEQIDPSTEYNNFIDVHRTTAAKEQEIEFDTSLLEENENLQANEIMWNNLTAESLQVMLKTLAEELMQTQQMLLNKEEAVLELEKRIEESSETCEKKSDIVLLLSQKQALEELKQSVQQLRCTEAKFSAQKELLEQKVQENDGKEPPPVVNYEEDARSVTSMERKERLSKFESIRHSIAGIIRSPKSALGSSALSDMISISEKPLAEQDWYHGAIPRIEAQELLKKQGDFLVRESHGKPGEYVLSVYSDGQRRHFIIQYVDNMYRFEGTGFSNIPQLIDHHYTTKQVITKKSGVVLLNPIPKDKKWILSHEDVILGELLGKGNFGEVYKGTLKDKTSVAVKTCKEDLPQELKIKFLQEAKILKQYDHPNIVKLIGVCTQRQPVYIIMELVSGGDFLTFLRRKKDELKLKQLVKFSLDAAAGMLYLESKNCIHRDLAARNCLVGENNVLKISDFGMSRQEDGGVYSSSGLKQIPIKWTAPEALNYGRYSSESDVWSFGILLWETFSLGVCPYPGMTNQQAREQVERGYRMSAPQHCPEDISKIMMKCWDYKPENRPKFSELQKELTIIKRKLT
UniProt Q6PCT2: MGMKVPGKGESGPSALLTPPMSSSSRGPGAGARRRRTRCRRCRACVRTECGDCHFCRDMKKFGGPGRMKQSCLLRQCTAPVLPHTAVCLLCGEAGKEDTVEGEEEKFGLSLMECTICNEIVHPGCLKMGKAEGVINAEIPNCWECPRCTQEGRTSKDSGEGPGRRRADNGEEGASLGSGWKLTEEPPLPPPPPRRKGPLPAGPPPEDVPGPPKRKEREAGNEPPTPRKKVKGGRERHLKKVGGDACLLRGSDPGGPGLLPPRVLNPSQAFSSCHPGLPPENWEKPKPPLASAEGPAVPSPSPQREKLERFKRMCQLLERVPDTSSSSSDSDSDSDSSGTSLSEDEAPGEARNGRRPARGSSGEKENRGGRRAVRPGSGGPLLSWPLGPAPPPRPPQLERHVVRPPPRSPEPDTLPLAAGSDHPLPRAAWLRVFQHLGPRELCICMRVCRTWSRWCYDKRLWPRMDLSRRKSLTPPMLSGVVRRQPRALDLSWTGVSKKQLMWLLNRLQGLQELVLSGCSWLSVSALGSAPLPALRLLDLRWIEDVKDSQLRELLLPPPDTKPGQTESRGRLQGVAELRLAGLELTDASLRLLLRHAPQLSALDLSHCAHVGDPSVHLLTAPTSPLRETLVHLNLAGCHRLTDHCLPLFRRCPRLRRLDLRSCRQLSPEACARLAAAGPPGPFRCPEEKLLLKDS
UniProt Q9NPI8: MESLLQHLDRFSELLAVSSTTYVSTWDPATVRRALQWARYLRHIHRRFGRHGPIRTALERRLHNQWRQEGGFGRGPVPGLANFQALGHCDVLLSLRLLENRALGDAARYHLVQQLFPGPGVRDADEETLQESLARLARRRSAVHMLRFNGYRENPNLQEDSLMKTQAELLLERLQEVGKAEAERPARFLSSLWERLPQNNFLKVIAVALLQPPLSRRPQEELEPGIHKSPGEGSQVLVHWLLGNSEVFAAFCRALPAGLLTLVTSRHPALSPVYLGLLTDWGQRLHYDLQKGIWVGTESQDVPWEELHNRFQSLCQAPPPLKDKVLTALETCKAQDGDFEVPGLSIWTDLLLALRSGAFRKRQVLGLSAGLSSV
UniProt Q96IV6: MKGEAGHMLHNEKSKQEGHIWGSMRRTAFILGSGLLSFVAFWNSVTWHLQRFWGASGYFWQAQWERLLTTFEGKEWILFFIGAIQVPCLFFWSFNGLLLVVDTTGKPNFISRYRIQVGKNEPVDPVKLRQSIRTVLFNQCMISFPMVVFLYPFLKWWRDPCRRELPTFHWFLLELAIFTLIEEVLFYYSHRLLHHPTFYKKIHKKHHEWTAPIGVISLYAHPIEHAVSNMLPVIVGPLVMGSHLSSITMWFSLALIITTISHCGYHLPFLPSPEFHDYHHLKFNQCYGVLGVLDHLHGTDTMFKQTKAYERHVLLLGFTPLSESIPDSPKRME
UniProt Q9Y2H6: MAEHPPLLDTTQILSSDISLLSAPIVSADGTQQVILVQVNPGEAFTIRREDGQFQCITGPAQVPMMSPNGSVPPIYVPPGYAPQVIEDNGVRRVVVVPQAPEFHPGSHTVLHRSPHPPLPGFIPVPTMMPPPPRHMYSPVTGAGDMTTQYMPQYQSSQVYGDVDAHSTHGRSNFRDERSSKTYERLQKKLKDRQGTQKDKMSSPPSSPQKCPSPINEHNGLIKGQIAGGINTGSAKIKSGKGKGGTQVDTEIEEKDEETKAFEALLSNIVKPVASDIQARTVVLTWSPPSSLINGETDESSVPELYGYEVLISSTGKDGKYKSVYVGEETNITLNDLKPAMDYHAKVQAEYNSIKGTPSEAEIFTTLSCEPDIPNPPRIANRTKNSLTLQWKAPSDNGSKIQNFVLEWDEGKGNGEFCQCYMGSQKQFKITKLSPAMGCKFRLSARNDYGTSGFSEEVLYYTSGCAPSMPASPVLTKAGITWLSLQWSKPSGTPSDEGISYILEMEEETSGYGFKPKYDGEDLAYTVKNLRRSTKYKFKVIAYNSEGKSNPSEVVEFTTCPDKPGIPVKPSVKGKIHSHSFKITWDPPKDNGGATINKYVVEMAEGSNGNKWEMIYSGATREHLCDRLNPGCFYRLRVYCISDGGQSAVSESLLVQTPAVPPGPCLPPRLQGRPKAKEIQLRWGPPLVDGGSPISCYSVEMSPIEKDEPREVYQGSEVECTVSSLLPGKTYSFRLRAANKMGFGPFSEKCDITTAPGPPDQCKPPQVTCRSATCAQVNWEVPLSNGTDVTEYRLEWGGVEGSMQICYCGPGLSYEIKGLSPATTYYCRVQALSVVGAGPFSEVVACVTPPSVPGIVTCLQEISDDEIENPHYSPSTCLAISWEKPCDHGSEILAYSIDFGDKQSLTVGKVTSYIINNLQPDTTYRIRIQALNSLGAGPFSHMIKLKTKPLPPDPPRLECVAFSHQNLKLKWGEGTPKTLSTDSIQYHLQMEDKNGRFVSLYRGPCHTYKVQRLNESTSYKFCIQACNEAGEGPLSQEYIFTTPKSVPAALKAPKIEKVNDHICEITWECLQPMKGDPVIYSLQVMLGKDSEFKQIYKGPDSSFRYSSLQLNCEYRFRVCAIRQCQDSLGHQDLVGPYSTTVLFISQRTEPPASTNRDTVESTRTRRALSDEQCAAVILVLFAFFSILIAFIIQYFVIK
UniProt Q9NVK5: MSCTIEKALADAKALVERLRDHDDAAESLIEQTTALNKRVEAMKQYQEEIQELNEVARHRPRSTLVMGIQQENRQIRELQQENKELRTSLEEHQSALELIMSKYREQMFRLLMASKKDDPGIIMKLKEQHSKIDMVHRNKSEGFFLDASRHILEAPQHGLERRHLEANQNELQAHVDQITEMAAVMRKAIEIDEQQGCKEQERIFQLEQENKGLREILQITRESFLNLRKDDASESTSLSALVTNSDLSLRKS
UniProt Q96PY5, whole entry, looked up: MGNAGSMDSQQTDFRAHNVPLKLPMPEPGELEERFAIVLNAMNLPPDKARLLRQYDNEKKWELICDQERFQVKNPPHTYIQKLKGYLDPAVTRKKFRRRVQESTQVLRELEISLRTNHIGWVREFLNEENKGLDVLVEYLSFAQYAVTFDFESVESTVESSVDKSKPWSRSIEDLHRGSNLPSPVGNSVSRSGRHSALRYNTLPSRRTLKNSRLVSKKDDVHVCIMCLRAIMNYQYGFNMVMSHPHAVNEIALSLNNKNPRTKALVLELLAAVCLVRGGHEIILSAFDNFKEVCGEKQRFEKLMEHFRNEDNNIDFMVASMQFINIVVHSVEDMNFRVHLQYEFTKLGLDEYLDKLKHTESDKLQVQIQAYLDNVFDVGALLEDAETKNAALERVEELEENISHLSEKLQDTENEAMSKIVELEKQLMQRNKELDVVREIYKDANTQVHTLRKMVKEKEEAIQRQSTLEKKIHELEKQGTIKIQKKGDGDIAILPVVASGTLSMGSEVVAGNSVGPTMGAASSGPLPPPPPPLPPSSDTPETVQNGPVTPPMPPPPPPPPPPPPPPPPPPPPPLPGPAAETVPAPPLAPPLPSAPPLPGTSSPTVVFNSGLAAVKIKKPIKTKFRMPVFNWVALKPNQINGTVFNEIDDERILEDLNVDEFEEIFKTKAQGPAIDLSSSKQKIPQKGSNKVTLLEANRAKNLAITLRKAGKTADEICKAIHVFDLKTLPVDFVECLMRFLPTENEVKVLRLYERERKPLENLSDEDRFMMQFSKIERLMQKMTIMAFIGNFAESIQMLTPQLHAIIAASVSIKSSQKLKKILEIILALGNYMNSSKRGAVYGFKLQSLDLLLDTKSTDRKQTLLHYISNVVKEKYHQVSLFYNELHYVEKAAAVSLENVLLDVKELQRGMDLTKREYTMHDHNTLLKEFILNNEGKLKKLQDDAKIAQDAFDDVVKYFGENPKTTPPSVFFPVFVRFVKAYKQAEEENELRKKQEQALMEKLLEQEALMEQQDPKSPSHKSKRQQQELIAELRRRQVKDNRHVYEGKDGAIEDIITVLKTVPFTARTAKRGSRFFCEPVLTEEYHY
UniProt Q8NFZ0: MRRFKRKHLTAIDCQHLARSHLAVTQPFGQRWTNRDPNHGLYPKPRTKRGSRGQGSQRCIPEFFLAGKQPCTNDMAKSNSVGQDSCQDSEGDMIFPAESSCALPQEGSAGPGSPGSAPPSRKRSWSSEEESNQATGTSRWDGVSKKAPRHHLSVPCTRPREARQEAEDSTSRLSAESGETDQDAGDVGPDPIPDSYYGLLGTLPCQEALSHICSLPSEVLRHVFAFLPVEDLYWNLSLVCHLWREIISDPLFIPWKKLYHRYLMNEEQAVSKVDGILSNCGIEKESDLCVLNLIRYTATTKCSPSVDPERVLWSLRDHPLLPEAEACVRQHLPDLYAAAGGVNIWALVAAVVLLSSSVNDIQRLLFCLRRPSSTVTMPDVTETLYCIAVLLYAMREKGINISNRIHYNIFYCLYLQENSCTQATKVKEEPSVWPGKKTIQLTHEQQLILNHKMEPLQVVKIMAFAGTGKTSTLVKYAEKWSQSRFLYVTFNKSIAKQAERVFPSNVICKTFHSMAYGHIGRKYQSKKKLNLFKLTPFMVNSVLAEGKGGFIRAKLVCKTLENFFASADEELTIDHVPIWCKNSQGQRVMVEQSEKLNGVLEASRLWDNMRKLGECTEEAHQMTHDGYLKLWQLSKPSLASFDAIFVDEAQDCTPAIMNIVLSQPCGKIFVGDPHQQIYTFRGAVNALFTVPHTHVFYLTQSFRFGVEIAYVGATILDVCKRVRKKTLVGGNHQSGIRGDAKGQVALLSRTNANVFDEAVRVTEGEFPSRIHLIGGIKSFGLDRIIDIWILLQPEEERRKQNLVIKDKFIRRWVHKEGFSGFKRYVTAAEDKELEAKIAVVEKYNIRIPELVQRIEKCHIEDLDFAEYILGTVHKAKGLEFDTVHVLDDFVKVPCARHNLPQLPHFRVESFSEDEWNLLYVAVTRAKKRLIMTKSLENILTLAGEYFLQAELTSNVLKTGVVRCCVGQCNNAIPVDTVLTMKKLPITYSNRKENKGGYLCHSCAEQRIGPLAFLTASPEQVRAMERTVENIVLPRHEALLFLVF
UniProt Q4VC44: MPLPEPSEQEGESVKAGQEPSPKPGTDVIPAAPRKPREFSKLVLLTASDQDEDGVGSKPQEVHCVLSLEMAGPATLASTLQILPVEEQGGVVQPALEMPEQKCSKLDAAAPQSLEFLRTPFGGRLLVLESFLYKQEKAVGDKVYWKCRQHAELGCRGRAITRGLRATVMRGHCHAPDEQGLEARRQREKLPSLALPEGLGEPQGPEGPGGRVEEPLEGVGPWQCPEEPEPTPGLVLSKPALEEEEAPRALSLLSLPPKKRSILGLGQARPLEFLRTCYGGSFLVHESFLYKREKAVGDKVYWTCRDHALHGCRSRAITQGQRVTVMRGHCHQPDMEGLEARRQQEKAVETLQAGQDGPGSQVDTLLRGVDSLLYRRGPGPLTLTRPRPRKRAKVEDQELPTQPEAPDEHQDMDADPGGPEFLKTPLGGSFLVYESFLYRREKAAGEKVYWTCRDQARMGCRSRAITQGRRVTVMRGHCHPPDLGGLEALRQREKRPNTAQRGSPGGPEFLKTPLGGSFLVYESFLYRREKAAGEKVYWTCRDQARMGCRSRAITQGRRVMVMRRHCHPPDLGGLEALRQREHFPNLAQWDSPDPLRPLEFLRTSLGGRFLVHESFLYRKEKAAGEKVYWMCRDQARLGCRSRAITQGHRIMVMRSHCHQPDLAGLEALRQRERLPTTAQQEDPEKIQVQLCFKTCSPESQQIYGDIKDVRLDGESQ

Some of the results follow.

Compound in the assay: CN1CCN(c2nc(C3=C(c4c[nH]c5ccccc45)C(=O)NC3=O)c3ccccc3n2)CC1 [sotrastaurin]
The assay can be described thus: log2 fold change, soluble protein after heating vs DMSO (PISA); higher = thermal stabilisation; K562 lysate, 10 uM; active = over 0.2 and 3.5 SD of the protein, either way, in both replicates (recomputed). In a few lines:
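K562 pellets were dounce-homogenised in PBS pH 7.4 containing 1 mM MgCl2, and the crude extract, at 1 mg/mL protein, was exposed to 10 μM compound for 30 min. Aliquots were heated for 3 min across 48°C-58°C, pooled, brought to 0.5% NP-40 at 4°C and spun at 21,000xg for 90 min, with the supernatant taken as soluble protein. TMTpro 16plex LC-MS/MS with equalised channel sums quantified that protein. Values are log-two fold changes in thermal stability relative to solvent controls, taken from duplicates.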
Regarding FER isoform 3 (UniProt P16591), the log2 fold change was inactive: 0.329. With FBXL19 (UniProt Q6PCT2) the figure was inactive: -0.088.

Regarding FOSL1 (UniProt P15407), the log2 fold change was inactive: 0.061. The value for FANCF (UniProt Q9NPI8) was inactive: 0.008; that for FBXO11 isoform 5 (UniProt Q86XK2) was inactive: 0.049; that for FMR1 isoform 9 (UniProt Q06787) was inactive: 0.069. With FAT1 (UniProt Q14517) the figure was inactive: -0.333. Regarding FAXDC2 (UniProt Q96IV6), the log2 fold change is inactive: -0.18. With FNDC3A (UniProt Q9Y2H6) the figure was inactive: -0.113; with FMR1NB (UniProt Q8N0W7), inactive: 0.167; with FCGR2B (UniProt P31994), inactive: -0.02.

On to FGFR1OP2 isoform 2 (UniProt Q9NVK5), for which the log2 fold change is inactive: 0.071. With FCF1 (UniProt Q9Y324) the figure was inactive: 0.149; with FIP1L1 isoform 3 (UniProt Q6UN15), inactive: 0.005.

On to FMNL2 isoform 3 (UniProt Q96PY5), for which the log2 fold change was inactive: 0.08. With FANCE (UniProt Q9HB96) the figure was inactive: 0.077; with FANCC (UniProt Q00597), inactive: 0.029. With FBH1 isoform 2 (UniProt Q8NFZ0) the figure was inactive: -0.029; with FLYWCH1 isoform 3 (UniProt Q4VC44), inactive: 0.141.
